Test results as given in patent publication US20230242544A1, “QUINAZOLINE COMPOUNDS, PREPARATION METHODS AND USES THEREOF” (INVENTISBIO CO., LTD., priority 2020, published 2023).
Where two headings read alike, the source gives them in different places. Structures were worked out from names or drawings and are uncertain.

Sequences of proteins named here, by UniProt entry; tags and fusion partners are left off. Residues count along the entry.
UniProt P01116, whole entry G12D: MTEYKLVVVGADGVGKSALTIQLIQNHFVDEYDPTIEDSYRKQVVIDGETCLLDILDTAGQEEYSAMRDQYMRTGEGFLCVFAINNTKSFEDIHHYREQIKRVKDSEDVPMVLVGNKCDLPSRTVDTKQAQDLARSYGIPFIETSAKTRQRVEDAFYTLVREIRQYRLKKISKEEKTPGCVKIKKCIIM
UniProt P01116, 1-188 isoform 2 G12D: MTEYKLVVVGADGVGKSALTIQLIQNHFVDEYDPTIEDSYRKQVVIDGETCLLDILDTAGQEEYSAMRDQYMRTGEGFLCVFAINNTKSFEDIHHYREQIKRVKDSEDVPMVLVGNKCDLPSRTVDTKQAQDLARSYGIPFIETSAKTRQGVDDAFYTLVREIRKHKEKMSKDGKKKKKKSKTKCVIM

Columns and labels:
[1] = biological target: Ba/F3_KRAS^G12D cells (Homo sapiens, UniProt P01116, G12D, cells depend on it); experiment: Ba/F3 KRAS G12D cell proliferation assay (CellTiter-Glo)
[2] = biological target: recombinant human KRAS^G12D protein (Homo sapiens, UniProt P01116, G12D); experiment: Temperature-dependent Fluorescence (TdF) KRAS G12D protein binding assay; details: read-out: TdF Kd, 6 μM KRAS^G12D protein, 10 μM compound, Sypro Orange, Kd calculated from the fluorescent shift
[3] = read-out: BaF3_KRAS^G12D IC50, treated for 3 days, cell-titer Glo, cell growth inhibition
[4] = read-out: BaF3_KRAS^G12D IC50, treated for 3 days, cell-titer Glo, cell growth inhibition, tested form: 3TFA

| SMILES | GI50 [1, 3] [µM] | Kd [2] [µM] | GI50 [1, 4] [µM] | also measured |
| --- | --- | --- | --- | --- |
| CN1CCC[C@H]1COc1nc(N2C[C@H]3C[C@@H]2CN3)c2cc(Cl)c(-c3cc(O)cc4cccc(Cl)c34)c(F)c2n1 |  |  |  | GI50 ([1]; read-out: BaF3_KRAS^G12D IC50, treated for 3 days, cell-titer Glo, cell growth inhibition, tested form: 0.36 formate): 0.5 to 5 µM; Kd ([2]; tested form: 0.36 formate): > 5 µM |
| CN1CCC[C@H]1COc1nc(N2CCNC3CC32)c2cc(Cl)c(-c3cc(O)cc4cccc(Cl)c34)c(F)c2n1 (some centres unmarked) | 0.5 to 5 | 0.5 to 5 |  |  |
| CN1CCC[C@H]1COc1nc(N2C[C@@H]3C[C@H]2CN3)c2cc(Cl)c(-c3cc(O)cc4cccc(Cl)c34)c(F)c2n1 |  |  |  | GI50 ([1]; read-out: BaF3_KRAS^G12D IC50, treated for 3 days, cell-titer Glo, cell growth inhibition, tested form: 0.74 formate): 0.5 to 5 µM; Kd ([2]; tested form: 0.74 formate): > 5 µM |
| N#Cc1cc2c(N3CC4CCC(C3)N4)nc(OC[C@@]34CCCN3C[C@H](F)C4)nc2c(F)c1-c1c(C(F)(F)F)ccc2[nH]ncc12 (relative stereo) | 0.5 to 5 | 0.5 to 5 |  |  |
| C#Cc1c(F)ccc2cc(O)cc(-c3c(F)cc4c(N5CC6CCC(C5)N6)nc(OC[C@@]56CCCN5C[C@H](F)C6)nc4c3F)c12 |  |  | < 0.5 | Kd ([2]; tested form: 3TFA): < 0.5 µM |
| CCc1c(F)ccc2cc(O)cc(-c3c(C#N)cc4c(N5CC6CCC(C5)N6)nc(OC[C@@]56CCCN5C[C@H](F)C6)nc4c3F)c12 (single isomer, unassigned) |  |  | < 0.5 |  |
